Results as given in publication PMC10865702.

The chains behind the UniProt entries cited, without tags or fusion partners. Where a name states a change or a piece, a line headed by the entry shows the natural chain unless it says otherwise.
UniProt P52565: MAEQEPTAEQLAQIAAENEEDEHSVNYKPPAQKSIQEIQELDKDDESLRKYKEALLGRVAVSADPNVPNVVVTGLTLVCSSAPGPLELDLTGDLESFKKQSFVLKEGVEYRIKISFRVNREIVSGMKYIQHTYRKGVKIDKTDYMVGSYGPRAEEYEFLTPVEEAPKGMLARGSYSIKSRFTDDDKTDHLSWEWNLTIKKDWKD
UniProt P53350: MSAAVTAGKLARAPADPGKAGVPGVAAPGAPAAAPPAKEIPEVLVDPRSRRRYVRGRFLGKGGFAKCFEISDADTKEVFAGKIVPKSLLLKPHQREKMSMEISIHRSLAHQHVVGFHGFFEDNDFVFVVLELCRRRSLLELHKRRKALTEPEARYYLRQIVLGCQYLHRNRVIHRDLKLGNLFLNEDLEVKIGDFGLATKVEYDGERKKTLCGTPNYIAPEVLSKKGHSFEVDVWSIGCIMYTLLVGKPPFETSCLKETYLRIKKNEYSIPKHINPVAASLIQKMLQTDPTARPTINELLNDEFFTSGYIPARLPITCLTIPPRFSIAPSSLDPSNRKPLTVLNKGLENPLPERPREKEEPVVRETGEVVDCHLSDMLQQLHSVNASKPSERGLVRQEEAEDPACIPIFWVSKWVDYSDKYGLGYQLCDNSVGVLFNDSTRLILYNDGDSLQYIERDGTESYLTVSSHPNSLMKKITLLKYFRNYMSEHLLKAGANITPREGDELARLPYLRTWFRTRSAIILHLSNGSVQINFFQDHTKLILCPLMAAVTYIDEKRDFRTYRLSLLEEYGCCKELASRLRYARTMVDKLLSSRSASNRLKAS

Molecular target: GST-RhoGDI1 truncation mutant aa 68-201 (human) (UniProt P52565)
Test: pull-down; GST-RhoGDI1 (wt or truncation mutants) or GST on GSH-beads, washed, incubated with His-PLK1 expression lysate (E. coli) at 4 °C overnight; immunoblot with PLK1 and GST antibodies; only the target purified

For “His-fused PLK1 (from UniProt P53350 1-603) (enzyme)”, the binding was “binds”.

These are yes or no findings as the source states them, for the method shown. Binding seen in cells or lysates may run through a third protein. Binding can be weak; no strength is given.
